Among the data in article doi:10.1101/2021.12.20.473529 (bioRxiv, 2021) are binding values, retold here.

Protein sequences, listed by entry. Tags and fused reporters are not part of them. Lines headed by an entry give the natural chain unless they say otherwise; changes in a name come on top. Chains listed by the source or under a name are the forms on record and can include a tag or linker. Residues count along the entry.
HNF-1A DBD (HNF-1A 83-279), wild type (P20823, residues 83-279): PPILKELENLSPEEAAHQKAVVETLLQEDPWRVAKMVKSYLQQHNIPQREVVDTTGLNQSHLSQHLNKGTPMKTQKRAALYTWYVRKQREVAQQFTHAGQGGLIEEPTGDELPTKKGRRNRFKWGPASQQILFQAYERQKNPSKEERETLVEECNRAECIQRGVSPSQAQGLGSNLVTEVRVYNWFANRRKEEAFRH
HNF-1A DBD/R263C (P20823, form named): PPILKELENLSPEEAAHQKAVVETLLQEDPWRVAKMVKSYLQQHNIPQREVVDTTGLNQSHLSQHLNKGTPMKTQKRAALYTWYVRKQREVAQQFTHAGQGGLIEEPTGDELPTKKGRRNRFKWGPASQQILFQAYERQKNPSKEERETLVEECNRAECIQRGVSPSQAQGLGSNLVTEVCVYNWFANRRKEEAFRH
HNF-1A DBD/N266S (P20823, form named): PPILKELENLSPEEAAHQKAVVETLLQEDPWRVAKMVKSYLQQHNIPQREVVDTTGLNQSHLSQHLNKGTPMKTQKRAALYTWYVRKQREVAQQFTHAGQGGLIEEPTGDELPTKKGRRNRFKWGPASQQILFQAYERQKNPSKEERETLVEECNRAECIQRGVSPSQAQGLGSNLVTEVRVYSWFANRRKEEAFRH

These are yes or no findings as the source states them, for the method shown.

Assay in all cases: SEC-MALS
In general terms: SEC sorts molecules by how far they enter the pores of the column.

The target of assay [1] is HNF-1A DBD/R263C (human) (UniProt P20823).
Assay [2] addresses HNF-1A DBD (HNF-1A 83-279), wild type (human) (UniProt P20823).
For assay [3], the target named is HNF-1A DBD/N266S (human) (UniProt P20823).

Consider “HNF-1A DBD/R263C (from UniProt P20823 83-279) (domain or fragment)”, for which, in assay [1], the binding result is “no binding (tested: 100 μg sample)”. As to “HNF-1A DBD (HNF-1A 83-279), wild type (from UniProt P20823 83-279) (domain or fragment)”, the binding entry in assay [2] was “no binding (tested: 100 μg sample)”. Consider “HNF-1A DBD/N266S (from UniProt P20823 83-279) (domain or fragment)”, for which, in assay [3], the binding result is listed as “no binding (tested: 100 μg sample)”.
